Data reported in PubChem BioAssay AID256 (DTP/NCI, 2004).
The list is a part of this screen's results and no random one: it covers a few groups of compounds. Not every dose and run of a compound is shown. T/C is the treated group as % of the vehicle group. Some doses have a count of surviving animals in place of a T/C: the source holds a T/C of zero for them, seemingly a mark for toxic or unscored doses. Survivors were counted at the toxicity check, usually on the fifth day, unless a day is given; later deaths do not show. Schedules are NCI's codes, taken here to give the interval after Q, in days (D) or hours (H), and the number of doses after X. For survival time, this PubChem deposit counts one and a half times the control or more as active, and values a quarter to a half above the control carry no call in these data; other NCI protocols may use other cut-offs. Some doses were run more than once; the values are given in rising order. Some structures stand for samples that the source files as different forms (salt, stereo form or complex); doses refer to the form tested. Some T/C values are marked as having no survivor count here; that says nothing about deaths at the dose. Some T/C values are followed by the survivors on the day toxicity was checked, most often the fifth; without a count or a note in brackets, all were alive then.

System: CD2F1 mice, L1210 leukemia ip, survival T/C
Test: NCI In Vivo Anticancer Drug Screen. Data for tumor model L1210 Leukemia (intraperitoneal) in CD2F1 (CDF1) mice
Settings: higher T/C = longer survival
How it was run: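 Tumor-bearing mice (transplanted tumor) were split into treated and vehicle control groups, and the measured endpoint of each treated group was divided by that of its vehicle controls.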

[1] = T/C endpoint: mean survival time, dose: 1.0 mg/kg/injection, schedule: Q01DX009 (ip), vehicle: saline
[2] = T/C endpoint: median survival time, dose: 0.25 mg/kg/injection, schedule: Q01DX009 (ip), vehicle: saline
[3] = T/C endpoint: median survival time, dose: 0.5 mg/kg/injection, schedule: Q01DX009 (ip), vehicle: saline
[4] = T/C endpoint: median survival time, dose: 1.0 mg/kg/injection, schedule: Q01DX009 (ip), vehicle: saline

How did the T/C (T/C endpoint: mean survival time, dose: 25.0 mg/kg/injection, schedule: Q01DX001 (ip), vehicle: DMSO) turn out when `CC(O)CCOP(=O)(N(C)C)N(CCCl)CCCl` (centres undefined) was run?
The T/C was 97 % of control [survivor count not shown].

And the T/C (T/C endpoint: mean survival time, dose: 50.0 mg/kg/injection, schedule: Q01DX001 (ip), vehicle: DMSO)?
The T/C was 97 % of control [survivor count not shown].

And the T/C (T/C endpoint: mean survival time, dose: 100.0 mg/kg/injection, schedule: Q01DX001 (ip), vehicle: DMSO)?
Its T/C is 106 % of control [survivor count not shown].

And the T/C (T/C endpoint: mean survival time, dose: 200.0 mg/kg/injection, schedule: Q01DX001 (ip), vehicle: DMSO)?
Its T/C is 100 % of control [survivor count not shown].

Which results are given for `C=CCCOP(N)(=O)N(CCCl)CCCl` (centres undefined)?
T/C (T/C endpoint: mean survival time, dose: 15.63 mg/kg/injection, schedule: Q01DX001 (ip), vehicle: DMSO): 104 % of control; T/C (T/C endpoint: mean survival time, dose: 31.25 mg/kg/injection, schedule: Q01DX001 (ip), vehicle: DMSO): 95 % of control; T/C (T/C endpoint: mean survival time, dose: 62.5 mg/kg/injection, schedule: Q01DX001 (ip), vehicle: DMSO): 98 % of control; T/C (T/C endpoint: mean survival time, dose: 125.0 mg/kg/injection, schedule: Q01DX001 (ip), vehicle: DMSO): 101 % of control; T/C (T/C endpoint: mean survival time, dose: 250.0 mg/kg/injection, schedule: Q01DX001 (ip), vehicle: DMSO): 97 % of control; T/C (T/C endpoint: mean survival time, dose: 500.0 mg/kg/injection, schedule: Q01DX001 (ip), vehicle: DMSO): 103 % of control [5 of 6 alive]; survivor count (T/C endpoint: mean survival time, dose: 1000.0 mg/kg/injection, schedule: Q01DX001 (ip), vehicle: DMSO): 0 of 6

`ClCCN1CCN(CCCl)CC1` was tested. Which T/C (T/C endpoint: mean survival time, dose: 0.12 mg/kg/injection, schedule: Q01DX009 (ip), vehicle: saline) did it give?
Its T/C is 110 % of control [survivor count not shown].

What about the T/C (T/C endpoint: mean survival time, dose: 0.25 mg/kg/injection, schedule: Q01DX009 (ip), vehicle: saline) of the same molecule?
The T/C was 125 % of control [survivor count not shown].

And the T/C (T/C endpoint: mean survival time, dose: 0.5 mg/kg/injection, schedule: Q01DX009 (ip), vehicle: saline)?
The T/C was 145 % of control [survivor count not shown].

What about the T/C (T/C endpoint: mean survival time, dose: 0.75 mg/kg/injection, schedule: Q04DX003 (ip), vehicle: saline) of the same molecule?
Its T/C is 110 % of control.

What about the T/C [1] of the same molecule?
The T/C was 154 % of control [survivor count not shown].

What about the T/C (T/C endpoint: mean survival time, dose: 1.5 mg/kg/injection, schedule: Q04DX003 (ip), vehicle: saline) of the same molecule?
The T/C was 200 % of control.

And the T/C (T/C endpoint: mean survival time, dose: 2.0 mg/kg/injection, schedule: Q01DX009 (ip), vehicle: saline)?
Its T/C is 97 % of control [survivor count not shown].

What about the T/C (T/C endpoint: mean survival time, dose: 3.0 mg/kg/injection, schedule: Q04DX003 (ip), vehicle: saline) of the same molecule?
Its T/C is 143 % of control.

And the T/C (T/C endpoint: mean survival time, dose: 6.0 mg/kg/injection, schedule: Q04DX003 (ip), vehicle: saline)?
Its T/C is 98 % of control.

What about the T/C (T/C endpoint: mean survival time, dose: 6.0 micrograms/kg/injection, schedule: Q01DX009 (ip), vehicle: saline) of the same molecule?
Its T/C is 116 % of control [survivor count not shown].

What about the T/C (T/C endpoint: mean survival time, dose: 6.2 micrograms/kg/injection, schedule: Q01DX009 (ip), vehicle: saline) of the same molecule?
Its T/C is 97 % of control [survivor count not shown].

What about the T/C (T/C endpoint: mean survival time, dose: 12.0 micrograms/kg/injection, schedule: Q01DX009 (ip), vehicle: saline) of the same molecule?
The T/C was 104 % of control [survivor count not shown].

What about the T/C (T/C endpoint: mean survival time, dose: 12.5 micrograms/kg/injection, schedule: Q01DX009 (ip), vehicle: saline) of the same molecule?
Its T/C is 107 % of control [survivor count not shown].

What about the T/C (T/C endpoint: mean survival time, dose: 25.0 micrograms/kg/injection, schedule: Q01DX009 (ip), vehicle: saline) of the same molecule?
The T/C was 91 [survivor count not shown] and 104 % of control [survivor count not shown].

And the T/C (T/C endpoint: mean survival time, dose: 50.0 micrograms/kg/injection, schedule: Q01DX009 (ip), vehicle: saline)?
The T/C was 100 [survivor count not shown] and 102 % of control [survivor count not shown].

What about the T/C (T/C endpoint: mean survival time, dose: 100.0 micrograms/kg/injection, schedule: Q01DX009 (ip), vehicle: saline) of the same molecule?
Its T/C is 104 [survivor count not shown] and 110 % of control [survivor count not shown].

What about the T/C (T/C endpoint: mean survival time, dose: 125.0 micrograms/kg/injection, schedule: Q01DX009 (ip), vehicle: saline) of the same molecule?
Its T/C is 122 % of control [survivor count not shown].

And the T/C (T/C endpoint: mean survival time, dose: 200.0 micrograms/kg/injection, schedule: Q01DX009 (ip), vehicle: saline)?
Its T/C is 109 [survivor count not shown] and 125 % of control [survivor count not shown].

And the T/C (T/C endpoint: mean survival time, dose: 250.0 micrograms/kg/injection, schedule: Q01DX009 (ip), vehicle: saline)?
The T/C was 125 % of control [survivor count not shown].

What about the T/C (T/C endpoint: mean survival time, dose: 500.0 micrograms/kg/injection, schedule: Q01DX009 (ip), vehicle: saline) of the same molecule?
The T/C was 143 % of control [survivor count not shown].

And the T/C (T/C endpoint: mean survival time, dose: 1000.0 micrograms/kg/injection, schedule: Q01DX009 (ip), vehicle: saline)?
Its T/C is 159 % of control [survivor count not shown].

And the T/C (T/C endpoint: mean survival time, dose: 2000.0 micrograms/kg/injection, schedule: Q01DX009 (ip), vehicle: saline)?
The T/C was 125 % of control [survivor count not shown].

What about the T/C [2] of the same molecule?
The T/C was 123 % of control.

And the T/C [3]?
Its T/C is 142 % of control.

What about the T/C [4] of the same molecule?
The T/C was 188 % of control.

For `NCCN(CCCl)CCCl`, which T/C [2] is on record?
The T/C was 148 % of control.

What about the T/C (T/C endpoint: median survival time, dose: 0.5 mg/kg/injection, schedule: Q01DX005 (ip), vehicle: saline) of the same molecule?
The T/C was 143 and 172 % of control.

What about the T/C [3] of the same molecule?
Its T/C is 197 % of control.

And the T/C (T/C endpoint: median survival time, dose: 1.0 mg/kg/injection, schedule: Q01DX005 (ip), vehicle: saline)?
Its T/C is 141 and 158 % of control.

What about the T/C [4] of the same molecule?
The T/C was 197 % of control.

And the T/C (T/C endpoint: median survival time, dose: 2.0 mg/kg/injection, schedule: Q01DX005 (ip), vehicle: saline)?
The T/C was 168 and 197 % of control.

And the T/C (T/C endpoint: median survival time, dose: 2.0 mg/kg/injection, schedule: Q01DX009 (ip), vehicle: saline)?
Its T/C is 234 % of control.

What about the T/C (T/C endpoint: median survival time, dose: 4.0 mg/kg/injection, schedule: Q01DX005 (ip), vehicle: saline) of the same molecule?
The T/C was 90 and 127 % of control.

And the T/C (T/C endpoint: median survival time, dose: 4.0 mg/kg/injection, schedule: Q01DX009 (ip), vehicle: saline)?
The T/C was 97 % of control.

Which T/C (T/C endpoint: mean survival time, dose: 25.0 mg/kg/injection, schedule: Q01DX009 (ip), vehicle: water) does the source give for `O=P1(N(CCCl)CCCl)OCc2ccccc2O1` (centres undefined) here?
Its T/C is 106 % of control [survivor count not shown].

And the T/C (T/C endpoint: mean survival time, dose: 31.8 mg/kg/injection, schedule: Q01DX001 (ip), vehicle: other)?
The T/C was 108 % of control [survivor count not shown].

And the T/C (T/C endpoint: mean survival time, dose: 50.0 mg/kg/injection, schedule: Q01DX009 (ip), vehicle: water)?
Its T/C is 105 % of control [survivor count not shown].

What about the T/C (T/C endpoint: mean survival time, dose: 62.5 mg/kg/injection, schedule: Q01DX001 (ip), vehicle: other) of the same molecule?
The T/C was 108 % of control [survivor count not shown].

And the T/C (T/C endpoint: mean survival time, dose: 100.0 mg/kg/injection, schedule: Q01DX009 (ip), vehicle: water)?
The T/C was 106 % of control [survivor count not shown].

What about the T/C (T/C endpoint: mean survival time, dose: 125.0 mg/kg/injection, schedule: Q01DX001 (ip), vehicle: other) of the same molecule?
The T/C was 122 % of control [survivor count not shown].

What about the T/C (T/C endpoint: mean survival time, dose: 200.0 mg/kg/injection, schedule: Q01DX009 (ip), vehicle: water) of the same molecule?
The T/C was 111 % of control [survivor count not shown].

What about the T/C (T/C endpoint: mean survival time, dose: 250.0 mg/kg/injection, schedule: Q01DX001 (ip), vehicle: other) of the same molecule?
Its T/C is 120 % of control [survivor count not shown].

Which T/C (T/C endpoint: mean survival time, dose: 0.44 mg/kg/injection, schedule: Q01DX009 (ip), vehicle: saline) does the source give for `ClCCN1CCCCC1CCl` (centres undefined) here?
The T/C was 102 % of control [survivor count not shown].

What about the T/C (T/C endpoint: mean survival time, dose: 0.66 mg/kg/injection, schedule: Q01DX009 (ip), vehicle: saline) of the same molecule?
Its T/C is 107 % of control [survivor count not shown].

And the T/C [1]?
Its T/C is 107 % of control [survivor count not shown].

How did the T/C (T/C endpoint: mean survival time, dose: 6.25 mg/kg/injection, schedule: Q01DX009 (ip), vehicle: Klucel (hydroxypropylcellulose) (HPC)) turn out when `ClCCN(CCCl)c1ccc(Cl)cc1` was run?
Its T/C is 97 % of control [survivor count not shown].

And the T/C (T/C endpoint: mean survival time, dose: 12.5 mg/kg/injection, schedule: Q01DX009 (ip), vehicle: Klucel (hydroxypropylcellulose) (HPC))?
Its T/C is 100 % of control [survivor count not shown].

And the T/C (T/C endpoint: mean survival time, dose: 25.0 mg/kg/injection, schedule: Q01DX009 (ip), vehicle: Klucel (hydroxypropylcellulose) (HPC))?
Its T/C is 95 [survivor count not shown] and 105 % of control [survivor count not shown].

And the T/C (T/C endpoint: mean survival time, dose: 50.0 mg/kg/injection, schedule: Q01DX009 (ip), vehicle: Klucel (hydroxypropylcellulose) (HPC))?
The T/C was 101 [survivor count not shown] and 102 % of control [survivor count not shown].

And the T/C (T/C endpoint: mean survival time, dose: 100.0 mg/kg/injection, schedule: Q01DX009 (ip), vehicle: Klucel (hydroxypropylcellulose) (HPC))?
Its T/C is 92 [survivor count not shown] and 101 % of control [survivor count not shown].

What about the T/C (T/C endpoint: mean survival time, dose: 200.0 mg/kg/injection, schedule: Q01DX009 (ip), vehicle: Klucel (hydroxypropylcellulose) (HPC)) of the same molecule?
The T/C was 103 [survivor count not shown] and 106 % of control [survivor count not shown].

What about the T/C (T/C endpoint: mean survival time, dose: 300.0 mg/kg/injection, schedule: Q01DX009 (ip), vehicle: Klucel (hydroxypropylcellulose) (HPC)) of the same molecule?
The T/C was 98 % of control [survivor count not shown].

What about the T/C (T/C endpoint: mean survival time, dose: 400.0 mg/kg/injection, schedule: Q01DX009 (ip), vehicle: Klucel (hydroxypropylcellulose) (HPC)) of the same molecule?
The T/C was 100 [survivor count not shown] and 102 % of control [survivor count not shown].
